One molecule from article PMC6986101 can be followed below.

No constants are given. Whether binding was seen depends on the method and setting. Binding seen in cells or lysates may run through a third protein. These calls come from enrichment with a bait or labelling near it, and not all partners need be listed. No binding means not detected with the bait. Tags and fused reporters may be left off the sequences shown.

This experiment has as its target T1, WT TRAP1 with C-terminal HA tag (pcDNA3.1 (+) MTS-TRAP1-HA) (human), Q12931.
T1 chain: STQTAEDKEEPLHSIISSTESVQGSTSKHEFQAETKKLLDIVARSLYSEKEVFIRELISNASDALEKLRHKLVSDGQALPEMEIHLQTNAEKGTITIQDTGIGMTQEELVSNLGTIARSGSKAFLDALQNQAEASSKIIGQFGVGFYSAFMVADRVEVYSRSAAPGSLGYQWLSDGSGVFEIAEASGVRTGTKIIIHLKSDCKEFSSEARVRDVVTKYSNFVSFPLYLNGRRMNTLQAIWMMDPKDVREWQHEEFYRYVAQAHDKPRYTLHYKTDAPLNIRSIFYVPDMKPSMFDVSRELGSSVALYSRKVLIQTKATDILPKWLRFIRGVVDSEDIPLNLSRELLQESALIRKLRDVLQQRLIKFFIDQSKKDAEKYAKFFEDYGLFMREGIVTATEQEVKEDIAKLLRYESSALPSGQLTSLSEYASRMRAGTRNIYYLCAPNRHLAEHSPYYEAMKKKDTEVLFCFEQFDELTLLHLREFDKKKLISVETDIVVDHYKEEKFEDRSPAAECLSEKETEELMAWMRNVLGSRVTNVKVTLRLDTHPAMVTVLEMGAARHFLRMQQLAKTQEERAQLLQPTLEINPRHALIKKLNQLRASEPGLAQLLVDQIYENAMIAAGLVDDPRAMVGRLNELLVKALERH
Nature of the experiment: affinity purification with mass spectrometry; anti-HA IP (Dynabeads-Protein G) from 1 mg clarified mitochondrial lysate of transfected HEK293T cells, overnight at 4 °C; lysis buffer 10 mM Tris-HCl pH 7.5, 50 mM NaCl, 1 mM EDTA, 1 mM DTT, 10% glycerol, 10 mM sodium molybdate, 0.1% Triton X-100; LC/MS/MS; list filtered for mitochondrial proteins with 4 or more unique peptides. As to conditions: remark: other sources report otherwise.

B1: PINK1, Q9BXM7 78-581 (protein)
chain: AARLQRQFVVRAWGCAGPCGRAVFLAFGLGLGLIEEKQAESRRAVSACQEIQAIFTQKSKPGPDPLDTRRLQGFRLEEYLIGQSIGKGCSAAVYEATMPTLPQNLEVTKSTGLLPGRGPGTSAPGEGQERAPGAPAFPLAIKMMWNISAGSSSEAILNTMSQELVPASRVALAGEYGAVTYRKSKRGPKQLAPHPNIIRVLRAFTSSVPLLPGALVDYPDVLPSRLHPEGLGHGRTLFLVMKNYPCTLRQYLCVNTPSPRLAAMMLLQLLEGVDHLVQQGIAHRDLKSDNILVELDPDGCPWLVIADFGCCLADESIGLQLPFSSWYVDRGGNGCLMAPEVSTARPGPRAVIDYSKADAWAVGAIAYEIFGLVNPFYGQGKAHLESRSYQEAQLPALPESVPPDVRQLVRALLQREASKRPSARVAANVLHLSLWGEHILALKNLKLDKMVGWLLQQSAATLLANRLTEKCCVETKMKMLFLANLECETLCQAALLLCSWRAAL
For the molecule B1, the binding entry was “no binding”.
